Measured values from PubChem BioAssay AID504467 (National Center for Advancing Translational Sciences (NCATS), 2011).
Screen size: about 330,000 compounds; about 7,700 (2.3%) were called active. This list was built around the results that the source calls inconclusive (neither active nor inactive); the mix of calls is not that of the screen. The call rests on the fitted dose curve; in most records, active means well fitted inhibition curve with a large enough effect; inconclusive means small, poorly fitted or top-dose-only effect, or effect the other way; inactive means flat fitted curve, though single readings scatter. Potencies beside an inconclusive call are fits to weak or partial responses and may not hold up.

Experiment: qHTS screen for small molecules that inhibit ELG1-dependent DNA repair in human embryonic kidney (HEK293T) cells expressing luciferase-tagged ELG1; further: nearly all actives have a fitted effect of over 55% in size
Details: HEK293T ELG1-luciferase reporter, luminescence, 16 h, DNA damage induced by 5-fluorouridine; series mostly up to 46.1 µM
Procedure, shortened: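 DMSO vehicle served as the neutral condition. Each well held 2,000 cells given 5-fluorouridine plus compound; after 16 hr at 37 °C/5% CO2, ONE-Glo was added and luciferase measured 30 min later.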
Potency means the concentration at half of the fitted maximal effect.

For CCCC(C)NC(=O)c1ccc(F)cc1 (configuration not stated), which Potency is on record?
The Potency was inconclusive: 11.2 µM [activator, partial curve, poor fit].

Which Potency does the source give for Cc1ccc(C(=O)N/C(=C/c2ccccc2)C(=O)NC(Cc2ccccc2)C(=O)O)cc1 (configuration not stated) here?
The Potency was inconclusive: 23.1 µM [activator, partial curve, poor fit].

With CCN1C(=O)[C@H]2[C@@H](c3ccc(-c4ccc(C(C)=O)cc4)cc3)N3CCCC[C@@]3(C(=O)OC)[C@H]2C1=O as the molecule, how does the Potency read?
Its Potency is inconclusive: 28.2 µM [inhibitor, single point].

For COc1ccc(C2C3=C(CCCC3=O)Nc3nc(C(F)(F)F)nn32)cc1OC (configuration not stated), which Potency is on record?
Its Potency is “inactive”.

Which Potency does the source give for C=CCn1c(=O)[nH]c2cc(C(=O)N3CCN(c4cccc(Cl)c4)CC3)ccc2c1=O here?
The Potency was inconclusive: 2.06 µM [inhibitor, partial curve, poor fit].

Which Potency does the source give for COc1ccccc1N1CCN(C(=O)CSc2nc3ccccc3c(=O)n2CC2CCCO2)CC1 (configuration not stated) here?
The Potency was active: 23.1 µM.

Which Potency does the source give for Cc1cccc(-n2ncc3c(N(CCO)CCO)ncnc32)c1 here?
Its Potency is inconclusive: 11.6 µM [activator, partial curve].

Which Potency does the source give for O=C(c1cc(-c2ccccc2)nc2ccccc12)N1CCN(c2ccccc2O)CC1 here?
Its Potency is active: 13 µM.

For COC(=O)CN(c1cc(Cl)ccc1OC)S(=O)(=O)c1ccc(C)cc1, which Potency is on record?
Its Potency is inconclusive: 2.31 µM [inhibitor, partial curve, poor fit].

Which Potency does the source give for COc1ccc(CNCc2cc3c(C(C)(C)C)nn(-c4ccccc4)c3[nH]c2=O)cc1 here?
The Potency was “inactive”.

For Cc1cc(C(=O)Cn2nc(C(=O)O)c3ccccc3c2=O)c(C)n1CCc1ccc(Cl)cc1, which Potency is on record?
Its Potency is active: 8.2 µM.

Which Potency does the source give for Cc1ccc2cc(CN(CC3CCCO3)C(=S)NCc3ccco3)c(=O)[nH]c2c1 (configuration not stated) here?
The Potency was inconclusive: 14.6 µM [inhibitor, partial curve].

For Cn1nc(C(=O)OCC(=O)c2ccccc2)c2ccccc2c1=O, which Potency is on record?
Its Potency is inconclusive: 23.1 µM [activator, partial curve, poor fit].

Which Potency does the source give for COC(=O)c1sccc1NC(=S)N1CCN(c2ccccc2F)CC1 here?
The Potency was inconclusive: 25.9 µM [activator, partial curve, poor fit].

For CCC1CCCCN1C(=O)CSc1nc2c(c(=O)n(C)c(=O)n2C)n1C (configuration not stated), which Potency is on record?
Its Potency is inconclusive: 23.1 µM [inhibitor, single point].

Which Potency does the source give for CCC(=O)Nc1ccc(OCC2CCCO2)cc1 (configuration not stated) here?
Its Potency is inconclusive: 20.6 µM [activator, partial curve, poor fit].

With CCOC(=O)c1cc(-c2ccccc2)sc1N as the molecule, how does the Potency read?
The Potency was inconclusive: 16.4 µM [activator, partial curve].
